Results are given in words; binding and its absence hold for the method and conditions named. In cells and extracts the contact can be indirect. Binding can be weak; no strength is given. Sequences can lack the tags named with a protein.
What was measured:
[1] = target: T1, VPY-GFP (VAPYRIN) (M. truncatula) (UniProt D3J162); assay: co-IP; anti-GFP nanobody trap (GFP-Trap) on lysates of protoplasts from N. benthamiana leaves co-expressing pairs of proteins (with p19); extraction buffer 50 mM Tris-HCl pH 7.5, 150 mM NaCl, 10% glycerol, 2 mM EDTA, 5 mM DTT, 1% IGEPAL CA-630; blots with anti-GFP and anti-mCherry
T1 sequence: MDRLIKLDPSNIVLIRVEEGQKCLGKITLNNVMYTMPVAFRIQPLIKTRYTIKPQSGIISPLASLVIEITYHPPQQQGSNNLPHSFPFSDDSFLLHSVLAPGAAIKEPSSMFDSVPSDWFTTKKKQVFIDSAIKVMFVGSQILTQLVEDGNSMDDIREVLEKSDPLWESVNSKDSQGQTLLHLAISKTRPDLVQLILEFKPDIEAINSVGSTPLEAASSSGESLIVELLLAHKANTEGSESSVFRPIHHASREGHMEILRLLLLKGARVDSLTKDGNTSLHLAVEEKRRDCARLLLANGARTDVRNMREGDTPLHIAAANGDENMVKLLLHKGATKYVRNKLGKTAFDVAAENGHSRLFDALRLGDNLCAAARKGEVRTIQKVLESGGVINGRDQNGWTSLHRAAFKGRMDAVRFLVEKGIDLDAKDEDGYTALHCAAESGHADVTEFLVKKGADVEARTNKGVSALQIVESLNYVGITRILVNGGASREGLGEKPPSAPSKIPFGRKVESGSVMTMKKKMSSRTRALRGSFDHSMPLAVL

[2] = target: mCherry-RPG (RHIZOBIUM-DIRECTED POLAR GROWTH) (M. truncatula); assay: co-IP; anti-RFP nanobody trap (RFP-Trap Magnetic agarose, 4 °C, 90 min) on lysates of protoplasts from N. benthamiana leaves co-expressing pairs of proteins (with p19); extraction buffer 50 mM Tris-HCl pH 7.5, 150 mM NaCl, 10% glycerol, 2 mM EDTA, 5 mM DTT, 1% IGEPAL CA-630; blots with anti-GFP and anti-mCherry

mCherry-EXO70H4 (M. truncatula)
binding [1]: binds

B1: VPY-GFP (VAPYRIN) (protein, UniProt D3J162 1-541)
chain: MDRLIKLDPSNIVLIRVEEGQKCLGKITLNNVMYTMPVAFRIQPLIKTRYTIKPQSGIISPLASLVIEITYHPPQQQGSNNLPHSFPFSDDSFLLHSVLAPGAAIKEPSSMFDSVPSDWFTTKKKQVFIDSAIKVMFVGSQILTQLVEDGNSMDDIREVLEKSDPLWESVNSKDSQGQTLLHLAISKTRPDLVQLILEFKPDIEAINSVGSTPLEAASSSGESLIVELLLAHKANTEGSESSVFRPIHHASREGHMEILRLLLLKGARVDSLTKDGNTSLHLAVEEKRRDCARLLLANGARTDVRNMREGDTPLHIAAANGDENMVKLLLHKGATKYVRNKLGKTAFDVAAENGHSRLFDALRLGDNLCAAARKGEVRTIQKVLESGGVINGRDQNGWTSLHRAAFKGRMDAVRFLVEKGIDLDAKDEDGYTALHCAAESGHADVTEFLVKKGADVEARTNKGVSALQIVESLNYVGITRILVNGGASREGLGEKPPSAPSKIPFGRKVESGSVMTMKKKMSSRTRALRGSFDHSMPLAVL
binding [2]: binds

Reference: paper PMC9991063
